Assay results as given in PubChem BioAssay AID493014 (National Center for Advancing Translational Sciences (NCATS), 2011).
About 170 (0.05%) of roughly 340,000 compounds were called active. The shares of active, inactive and inconclusive entries below differ from those in the screen. Calls come from the whole dose curve; as a rule, active = well fitted inhibition curve with a large enough effect in the signal ratio, with a control signal flat (not every such curve was filed as active); inconclusive = small, poorly fitted or top-dose-only effect, or effect the other way, or a change in a side signal; inactive = flat fitted curve, though single readings scatter; the % refers to the signal ratio. Potencies beside an inconclusive call are fits to weak or partial responses and may not hold up.

experiment: qHTS Assay to Find Inhibitors of Chronic Active B-Cell Receptor Signaling; conditions: ABC-DLBCL IkBa-CBG/CBR reporter, luminescence ratio (green luciferase fused to IkBa over red control in TMD8 lymphoma cells), 4 h; activity change, negative = inhibition: at 46.1 µM (top of the series);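 for activity change, negative = inhibition: plate controls were basal doxycycline-induced cells for no effect and cells given 10 µM MG132 for full effect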
Method in brief: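 Doxycycline induced both beetle luciferases in TMD8 lymphoma cells; IKK-driven degradation limits the IkappaBalpha-fused green signal, while red luminescence normalises for cell number and nonspecific effects. Compounds tested up to 46 uM, 4 hrs.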
Potency is the fitted concentration of half-maximal effect.

Compound	activity change, negative = inhibition	Potency
CCOc1ccc(CN(C(=O)c2oc3cc(C)ccc3c2C)C2CCS(=O)(=O)C2)cc1 (stereo not given)	inconclusive: -15.9%	–
Cc1cc(C)cc(NC(=O)c2ccc(CSc3nnc(C)s3)cc2)c1	inconclusive: -1%	–
CCN(C(=O)COC(=O)CCC(=O)c1cccs1)C1CCCCC1	inconclusive: 0.204%	–
CC(=O)Nc1ccc(S(=O)(=O)Nc2ccc3c(c2)CCC3)cc1	inconclusive: -11.9%	–
CCCCCOP(=O)(OCCCCC)C1(NS(=O)(=O)c2ccccc2)C=CC(=O)c2ccccc21 (stereo not given)	inconclusive: 4.46%	–
CCCN1C(=O)C(Cc2nc3ccccc3c(=O)n2-c2ccccc2)c2ccccc21 (stereo not given)	–	inconclusive: 23.1 µM [falling, partial curve, poor fit]
O=C(NCc1ccncc1)Nc1cc(Cl)ccc1Cl	inconclusive: 4.49%	–
Cc1cc(C)n(-c2nc(NCCCO)c3c4c(sc3n2)CCCC4)n1	inconclusive: -1.17%	–
COc1cc(OC)cc(C(=O)NNc2nc3cc4c(cc3s2)OCO4)c1	inactive	–
Cc1ccccc1C(=O)c1cccn1CC(=O)O	inactive	–
O=C(NCc1ccc(F)cc1)Nc1cccc(Cl)c1	inconclusive: 11.2%	–
CCOC(=O)c1cccc(NC(=O)C2CCC(CNc3c(N4CCOCC4)c(=O)c3=O)CC2)c1 (stereo not given)	–	inconclusive: 23.1 µM [falling, partial curve, poor fit]
CN(C)CCNC(=O)c1c(NC(=O)c2ccccc2)sc2c1CCCC2	inconclusive: -4.66%	–
COc1ccccc1Nc1nc(-c2sc(NC(=O)c3ccco3)nc2C)cs1	inconclusive: -24.8%	–
COC(=O)Cc1c(C)nc2nc(-c3cccnc3)[nH]n2c1=O	–	inconclusive: 6.51 µM [falling, partial curve, poor fit]
C=CC[C@@H]1C=C[C@H](O/N=C/c2ccc(C(=O)N3[C@H](c4ccc(C)cc4)[C@@H](C)CC[C@H]3C(=O)OC)cc2)[C@@H](CO)O1	inconclusive: -3.1%	–
COC(=O)c1ccc(NC(=O)C23CCC(C)(C(=O)O2)C3(C)C)cc1 (stereo not given)	inconclusive: 5.78%	–
CCCOc1cccc(C(=O)N/N=C/c2ccoc2)c1	–	inconclusive: 15.8 µM [falling, partial curve]
O=C(NCC(c1ccco1)N1CCc2ccccc2C1)C(=O)Nc1ccc(F)cc1F (stereo not given)	inconclusive: -17.7%	–
CCc1nc(N2CCN(C(C)=O)CC2)c(C#N)c2c1COC(C)(C)C2	inactive	–
C/C(=N/NC(=O)Cc1cccs1)c1ccco1	–	inconclusive: 25.9 µM [rising, partial curve, poor fit]
CCOC(=O)C1CCN(C(=O)Cn2nc(C)n3nc(-c4ccc(OC)cc4)cc3c2=O)CC1	inconclusive: 1.98%	–
CCCCNCCCCOc1ccccc1	–	inconclusive: 6.51 µM [falling, single point]
COc1ccc(Nc2nc(N)nc(CSC(=S)N3CCCCC3C)n2)cc1 (stereo not given)	–	inconclusive: 11.2 µM [falling, partial curve, poor fit]
O=C(Nc1ccccc1Cl)c1ccc(-n2cccn2)c([N+](=O)[O-])c1	inconclusive: -2.12%	–

Grouped by structure, the compounds so far containing fluorine (two)
Compound	activity change, negative = inhibition	Potency
O=C(NCc1ccc(F)cc1)Nc1cccc(Cl)c1	inconclusive: 11.2%	–
O=C(NCC(c1ccco1)N1CCc2ccccc2C1)C(=O)Nc1ccc(F)cc1F (stereo not given)	inconclusive: -17.7%	–

Fetched by structure from the entries so far, 2 records:
Compound	activity change, negative = inhibition	Potency
Cc1ccccc1C(=O)c1cccn1CC(=O)O	inactive	–
COC(=O)Cc1c(C)nc2nc(-c3cccnc3)[nH]n2c1=O	–	inconclusive: 6.51 µM [falling, partial curve, poor fit]

(cont.)

Compound	activity change, negative = inhibition	Potency
Cc1ccc(C2NC(=O)c3ccccc3O2)cc1 (stereo not given)	inconclusive: 8.39%	–
CC1CCCCN1CCNC(=O)c1cc2c(=O)n(C)c3ccccc3c2n1C (stereo not given)	–	inconclusive: 22.4 µM [falling, single point]
COC(=O)c1[nH]c2cccc(C)c2c1NC(=O)CN1CCCc2ccccc21	inconclusive: -10.7%	–
O=C(CCN1C(=O)/C(=C/c2ccccc2)SC1=S)N[C@@H](CO)Cc1ccccc1	inactive	–
C=CCN(c1ccccc1)S(=O)(=O)c1cccc(C(=O)NNC(=O)c2ccccc2O)c1	inconclusive: 0.223%	–
O=C(O)CC(NC(=O)c1sc2ccccc2c1Cl)c1ccc(OC2CCCC2)cc1 (stereo not given)	–	inconclusive: 31.6 µM [falling, single point]
CCOC(=O)c1ccc(NC(=O)c2c(NCc3cccs3)sc3c2CCCCC3)cc1	–	inconclusive: 10 µM [falling, partial curve]
O=C(Cc1ccc(F)cc1)N[C@@H]1c2ccccc2CC[C@H]1OCc1ccccc1	inactive	–
CCN(C(=O)COC(=O)c1ccccc1NCCO)C1CCS(=O)(=O)C1 (stereo not given)	–	inconclusive: 20.6 µM [falling, partial curve]
COc1ccc(OCC2c3cc(OC)c(OC)cc3CCN2C(=O)c2ccc(F)cc2)cc1 (stereo not given)	inactive	–
COc1ccc(CC(=O)NC(=S)NNC(=O)COc2c(C)cccc2C)cc1	inactive	–
CCn1nnnc1SCC(=O)N1c2ccccc2Sc2ccccc21	inactive	–
CCOC(=O)[C@H]1[C@H]2COc3ccc(Br)cc3[C@@H]2N2C(=O)CN(Cc3ccco3)C(=O)[C@@]12C	inconclusive: 13.9%	–
Oc1ccc(-c2nc3ccccc3nc2-c2ccccc2)cc1	inconclusive: 3.21%	–
Cc1c(NC(=O)COC(=O)Cn2cc(C(F)(F)F)ccc2=O)cccc1[N+](=O)[O-]	inconclusive: 11.6%	–
CCCCNC(=O)c1cc2c(=O)n3cccc(C)c3nc2n(Cc2ccncc2)c1=N	inactive	–
Oc1ccc(-c2csc(Nc3ncccn3)n2)cc1O	–	inconclusive: 25.1 µM [falling, single point]
O=C(Cc1ccc(F)cc1)NCC1CCCO1 (stereo not given)	–	inconclusive: 35.5 µM [falling, single point]
O=C(NC(=S)Nc1ccc(Cl)cn1)c1cccs1	–	inconclusive: 11.2 µM [falling, partial curve]
CC(=O)c1sc(-c2ccc(F)cc2)cc1NS(=O)(=O)c1ccc(C)cc1	inconclusive: 10.9%	–
O=S(=O)(N1CCCCC1)N1CCN(c2ccc(F)cc2)CC1	inconclusive: 9.79%	–
COc1cc2c(cc1OC)CN(C(=O)COc1ccccc1[N+](=O)[O-])CC2	–	inconclusive: 25.1 µM [falling, partial curve]
CCSc1nnc(NC(=O)c2ccccn2)s1	inconclusive: 169% [cytotoxic]	–
CCSc1nc2ccccc2n1C(=O)/C=C\c1ccc(OC)c(OC)c1	inactive	–
Cn1nccc1CNC(=O)c1c(Cl)cnn1C	inactive	–
